{"source": "PubChem BioAssay AID1347075", "about": "(National Center for Advancing Translational Sciences (NCATS), 2019)", "note": "Screen size: about 400,000 compounds; about 5,500 (1.4%) were called active. Inconclusive means that the source gave no clear call. Such entries were picked first, then a sample of the others. Calls come from the whole dose curve; as a rule, active = well fitted cell-killing curve with a large enough effect; inconclusive = small, poorly fitted or top-dose-only effect, or effect the other way; inactive = flat fitted curve, though single readings scatter. Where the call is inconclusive, the potency comes from a doubtful curve fit. % is set by controls: 0 for no effect and ±100 for the full control effect; potency is the fitted concentration of half-maximal effect.", "data": [{"assay": "qHTS assay for MDR1-selective chemotherapeutics: Primary screen using the parental adenocarcinoma cell KB-3-1; note: nearly all actives have a fitted effect of over 60% in size", "settings": "KB-3-1 viability, CellTiter-Glo ATP luminescence, 72 h; activity change, negative = cytotoxic: at 46.1 µM (top of the series)", "how_it_was_run": "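KB-3-1 parental drug-naive adenocarcinoma cells in DMEM/10% FBS, incubated 72 h at 37 C with pin-transferred compounds across a concentration series. Viability by CellTiter-Glo luminescence; concentration-response curves fitted after normalization.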", "values": [{"smiles": "N#C/C(=C\\c1ccc(-c2ccc(C(=O)O)cc2)o1)c1nc2ccccc2[nH]1", "Potency": "inactive"}, {"smiles": "CCOC(=O)C(=O)N(C)c1c(CC)nc2c(OCc3ccccc3OC)cccn12", "activity change, negative = cytotoxic": "inactive: 0%"}, {"smiles": "O=C(COc1ccc(C(=O)c2ccccc2)cc1)Nc1cccnc1", "Potency": "inconclusive: 7.31 µM [cytotoxic, partial curve, poor fit]"}, {"smiles": "Cc1cccc(NC(=O)c2sc(Cl)nc2C)c1C", "Potency": "inconclusive: 0.82 µM [cytotoxic, full curve]"}, {"smiles": "CCc1ccccc1Nc1nn2c(=O)c3ccc(C(=O)NCc4ccccc4Cl)cc3nc2s1", "Potency": "inconclusive: 29.1 µM [cytotoxic, single point]"}, {"smiles": "CCOc1ccc2ccccc2c1C(=O)N1CCN(c2ccccc2)CC1", "Potency": "active: 23.1 µM"}, {"smiles": "Cc1cc(C(=O)NNC(=S)NC(C)c2ccccc2)c2ccccc2n1", "note": "(stereo not drawn)", "activity change, negative = cytotoxic": "inactive: -13.9%"}, {"smiles": "Cc1ccc(-n2c(-c3ccccc3)c[n+]3c2CCc2ccccc2-3)c(C)c1", "Potency": "active: 4.61 µM"}, {"smiles": "S=C(NCC1CCCO1)Nc1cccc2ccccc12", "note": "(stereo not drawn)", "activity change, negative = cytotoxic": "inactive: 1.24%"}, {"smiles": "COCCNc1nc(-c2cc(C)c(C)cc2C)cs1", "activity change, negative = cytotoxic": "inconclusive: -14.6%"}, {"smiles": "CC(C)c1nc(SCC(=O)N2CCCC2)c2ccccc2n1", "activity change, negative = cytotoxic": "inactive: -3.83%"}, {"smiles": "N#CCc1nn(-c2ccccc2)c(N)c1C#N", "Potency": "inconclusive: 8.2 µM [rising, partial curve]"}, {"smiles": "Cc1cccc2cc3c(N)c(C(=O)N4CCCc5ccccc54)sc3nc12", "Potency": "inconclusive: 2.06 µM [cytotoxic, partial curve, poor fit]"}, {"smiles": "Cc1ccc2cccc(OCC(=O)N3CC(C)CC(C)C3)c2n1", "note": "(stereo not drawn)", "Potency": "inconclusive: 29.1 µM [cytotoxic, single point]"}, {"smiles": "CC[C@]12c3[nH]c4cc(-c5ccco5)ccc4c3CCN1C(=O)[C@@H](CC(=O)NCC13CC4CC(CC(C4)C1)C3)C[C@@H]2C(=O)N1CCN(C(=O)c2ccco2)CC1", "Potency": "inconclusive: 25.9 µM [cytotoxic, single point]"}, {"smiles": "Cc1cc(N)n2nc(-c3ccc(C(C)(C)C)cc3)cc2n1", "Potency": "inconclusive: 16.4 µM [cytotoxic, single point]"}, {"smiles": "Cn1cc(/C=C2\\SC(=O)N(c3ccccc3)C2=O)c2ccccc21", "Potency": "inconclusive: 0.0082 µM [rising, full curve]"}, {"smiles": "COC(=O)[C@@]12C[C@@H](CC(=O)NCCCCc3ccccc3)C(=O)N(Cc3cccc4ccccc34)C1=CCC(C)(C)C2", "Potency": "inconclusive: 29.1 µM [cytotoxic, single point]"}, {"smiles": "Cc1cccc(CN2CCN(C(=O)c3cccc4ccccc34)CC2)c1", "activity change, negative = cytotoxic": "inactive: 4.24%"}, {"smiles": "CCOC(=O)c1n[nH]n(-c2cc(Cl)cc(Cl)c2)c1=O", "activity change, negative = cytotoxic": "inactive: 2.4%"}, {"smiles": "Cc1cc(C)c2nc(C(F)(F)F)nc(NCCCN3CCOCC3)c2c1", "Potency": "inconclusive: 23.1 µM [cytotoxic, single point]"}, {"smiles": "COc1ccc(/C=C/C(=O)c2ccc(O)cc2)cc1CN1CCOCC1", "Potency": "active: 16.4 µM"}, {"smiles": "Cc1ccc(-n2ncc3c(=O)[nH]c(SCC(=O)N4CCCC4)nc32)cc1C", "Potency": "inconclusive: 32.6 µM [rising, single point]"}, {"smiles": "Nc1nc2cc3c(cc2cc1C(=O)NCc1ccc(F)cc1)OCO3", "Potency": "active: 7.31 µM"}, {"smiles": "CC1=C(C(=O)OCc2ccccc2)C(/C=C/c2ccccc2)NC(=S)N1", "note": "(stereo not drawn)", "activity change, negative = cytotoxic": "inactive: -20.7%"}, {"smiles": "O=[N+]([O-])c1ccc(O)c(/C=N/Nc2ccccc2[N+](=O)[O-])c1", "Potency": "inconclusive: 23.1 µM [cytotoxic, single point]"}, {"smiles": "Oc1c(Br)cc(/C=N/n2c(-c3ccccc3)n[nH]c2=S)cc1Br", "Potency": "inconclusive: 13 µM [cytotoxic, single point]"}, {"smiles": "CC(=O)c1ccc(Sc2nnnn2-c2ccccc2)c([N+](=O)[O-])c1", "Potency": "inconclusive: 18.4 µM [cytotoxic, single point]"}, {"smiles": "CCCCNc1c(-c2ccc(-c3cccc(Cl)c3)cc2)nc2ccccn12", "Potency": "inconclusive: 32.6 µM [cytotoxic, single point]"}, {"smiles": "COc1ccc(CNC(=O)C2CC(c3ccc(C(F)(F)F)cc3)=NO2)cc1", "note": "(stereo not drawn)", "Potency": "inconclusive: 23.1 µM [cytotoxic, partial curve, poor fit]"}, {"smiles": "O=C(/C=C/c1ccccc1F)c1ccoc1", "Potency": "inconclusive: 18.4 µM [cytotoxic, partial curve, poor fit]"}, {"smiles": "CC(C)(CN1CCN(c2ccccc2)CC1)NS(=O)(=O)c1ccccc1", "Potency": "inconclusive: 29.1 µM [cytotoxic, single point]"}, {"smiles": "COc1cc(NC(=O)CC(C)S(=O)(=O)c2cc3c4c(c2)CCN4C(=O)CC3)cc(OC)c1", "note": "(stereo not drawn)", "activity change, negative = cytotoxic": "inactive: 1.12%"}, {"smiles": "O=C(NC12CC3CC(CC(C3)C1)C2)c1ccc(-c2ccc(Cl)cc2)o1", "Potency": "inconclusive: 25.9 µM [cytotoxic, single point]"}, {"smiles": "N#CC1C=Cc2c(ccc3ccccc23)N1C(=O)c1ccccc1", "note": "(stereo not drawn)", "Potency": "active: 0.461 µM"}, {"smiles": "CCc1ccccc1N(C(=O)CNC(=O)c1ccco1)C(C(=O)NC1CCCC1)c1cccnc1", "note": "(stereo not drawn)", "activity change, negative = cytotoxic": "inactive: 1.43%"}, {"smiles": "CCCOc1ccc(NC(=O)CC2C(=O)N(Cc3ccccc3)C(=S)N2Cc2cccs2)cc1", "note": "(stereo not drawn)", "Potency": "inconclusive: 20.6 µM [cytotoxic, single point]"}, {"smiles": "CCCCCCCCN1C(=O)[C@H](CC(=O)N2CCOCC2)C[C@@]2(C(=O)OCC)CCCC=C12", "Potency": "inconclusive: 20.6 µM [cytotoxic, single point]"}, {"smiles": "Cc1cc2c(cc1C)-c1nnnn1C(N1CCC(Cc3ccccc3)CC1)C(=O)N2", "note": "(stereo not drawn)", "Potency": "inconclusive: 29.1 µM [cytotoxic, single point]"}, {"smiles": "COc1ccc(C2=Nn3c(nnc3-c3ccccc3Cl)SC2)cc1OC1CCOC1", "note": "(stereo not drawn)", "Potency": "active: 13 µM"}, {"smiles": "COc1ccc(Cl)cc1NC(=O)CN(C)C(=O)c1cc(=O)c2ccccc2o1", "activity change, negative = cytotoxic": "inactive: -24.2%"}, {"smiles": "N#C/C(=C/c1cn(-c2ccccc2)nc1-c1cccc(OCc2ccc(F)cc2)c1)C(=O)NCCCn1ccnc1", "Potency": "inconclusive: 18.4 µM [cytotoxic, single point]"}, {"smiles": "CCc1cccc(C)c1NC(=S)NCC1CCN(c2ccc(OC)cc2)C1", "note": "(stereo not drawn)", "activity change, negative = cytotoxic": "inactive: -29.9%"}, {"smiles": "COc1cccc(C2=CC(c3cccs3)n3nnnc3N2)c1", "note": "(stereo not drawn)", "Potency": "active: 5.17 µM"}, {"smiles": "COc1ccc(/C=C/c2cc[n+](C(=O)Cc3ccccc3)cc2)cc1", "Potency": "inconclusive: 29.1 µM [cytotoxic, single point]"}, {"smiles": "Nc1nc(N)c2cc(Sc3ccc4ccccc4c3)ccc2n1", "Potency": "active: 20.6 µM"}, {"smiles": "CN(Cc1ccc(Cl)c(Cl)c1)C(=O)c1cccc(S(=O)(=O)N2CCN(Cc3ccccc3)CC2)c1", "Potency": "active: 9.2 µM"}, {"smiles": "COc1cccc(CN2CCN(C(=O)[C@H]3O[C@@H](n4cnc5c(N)ncnc54)[C@H](O)[C@@H]3O)CC2=O)c1", "activity change, negative = cytotoxic": "inactive: -6.76%"}, {"smiles": "O=S(=O)(c1ccc(Cl)s1)N1CCN(c2ncccn2)CC1", "activity change, negative = cytotoxic": "inactive: -1.19%"}, {"smiles": "Nc1ccc2c(c1)C=C/C2=C\\c1ccccc1", "Potency": "inconclusive: 5.17 µM [rising, full curve, poor fit]"}, {"smiles": "COc1ccc(C2=CC(c3ccc(F)cc3)n3nnnc3N2)cc1", "note": "(stereo not drawn)", "activity change, negative = cytotoxic": "inactive: -1.16%"}, {"smiles": "CC1CCN(C(=O)CN(c2ccccc2)S(=O)(=O)N(C)C)CC1", "Potency": "inconclusive: 29.1 µM [rising, single point]"}, {"smiles": "CCOc1ccc(CCN2C(=S)N([C@@H](CC(C)C)CN3CCCC3CN3C(=S)NC[C@@H]3Cc3ccc(O)cc3)C[C@@H]2CC(C)C)cc1", "note": "(stereo partly drawn)", "Potency": "inconclusive: 29.1 µM [cytotoxic, single point]"}, {"smiles": "CC1=NN(c2ccccc2)C(=O)/C1=C\\c1cn(CCC#N)nc1-c1ccc(Cl)cc1", "activity change, negative = cytotoxic": "inactive: 10.8%"}, {"smiles": "CCn1ccc2c(OCC(=O)Nc3ccccc3C)cccc2c1=O", "Potency": "inconclusive: 29.1 µM [cytotoxic, single point]"}, {"smiles": "Cc1cccn2c(=O)c3cc(C(N)=S)c(=N)n(CCCOC(C)C)c3nc12", "Potency": "inconclusive: 29.1 µM [cytotoxic, single point]"}, {"smiles": "CCN1CCN(C(CNS(=O)(=O)c2ccccc2)c2ccccc2)CC1", "note": "(stereo not drawn)", "activity change, negative = cytotoxic": "inactive: 1.25%"}, {"smiles": "Cc1ccc(OC(C)C(=O)N(C)Cc2ccccc2)c([N+](=O)[O-])n1", "note": "(stereo not drawn)", "activity change, negative = cytotoxic": "inactive: 11.8%"}, {"smiles": "CCOc1ccc(S(=O)(=O)Nc2cc(OC)ccc2OC)cc1", "Potency": "active: 0.103 µM"}, {"smiles": "Cc1ccc(-n2cc(CNCCN3CCOC3=O)c(-c3ccc(F)cc3)n2)cc1", "activity change, negative = cytotoxic": "inactive: -8.77%"}, {"smiles": "CCN(C(=O)C1CC1)C1CCS(=O)(=O)C1", "note": "(stereo not drawn)", "activity change, negative = cytotoxic": "inactive: -2.05%"}, {"smiles": "Cc1ccc2nc(SCC(=O)Nc3cccc(F)c3)nc(=O)n2c1", "Potency": "inconclusive: 23.1 µM [cytotoxic, partial curve]"}, {"smiles": "N#Cc1cnc(Oc2ccc(Cl)cc2)nc1N", "Potency": "inconclusive: 29.1 µM [rising, single point]"}, {"smiles": "CCC(CC)C(=O)Nc1nc2c(s1)CC(C)CC2", "note": "(stereo not drawn)", "Potency": "inconclusive: 23.1 µM [cytotoxic, partial curve, poor fit]"}, {"smiles": "CCOC(=O)[C@]12CCC=C1N(Cc1ccc3c(c1)OCO3)C(=O)[C@H](CC(=O)N1CCC(c3ccccc3)CC1)C2", "Potency": "inconclusive: 29.1 µM [cytotoxic, single point]"}, {"smiles": "COc1ccc(OC)c(/C=C/c2cc3ccccc3c[n+]2C)c1", "Potency": "inconclusive: 0.82 µM [cytotoxic, full curve, poor fit]"}, {"smiles": "COCCNC(=S)NNC(=O)c1ccco1", "Potency": "inconclusive: 32.6 µM [cytotoxic, single point]"}, {"smiles": "COc1cccc(-c2nnn(CC(=O)N(C3CCCCC3)C3CCS(=O)(=O)C3)n2)c1", "note": "(stereo not drawn)", "activity change, negative = cytotoxic": "inactive: 2.78%"}, {"smiles": "CC1(Cc2ccc(OC(F)(F)F)cc2)C(=O)Nc2c(Cl)ccc(Cl)c21", "note": "(stereo not drawn)", "activity change, negative = cytotoxic": "inactive: 0%"}, {"smiles": "Fc1ccc(/C=N/Nc2ncnc3nc[nH]c23)cc1F", "activity change, negative = cytotoxic": "inactive: -16.2%"}, {"smiles": "O=c1[nH]ncc(N/N=C/c2ccccc2)c1Cl", "activity change, negative = cytotoxic": "inactive: 0.783%"}, {"smiles": "COC(=O)c1cc(=O)n(Cc2ccc3c(c2)OCO3)c(=Nc2ccc(F)cc2)s1", "Potency": "inconclusive: 20.6 µM [cytotoxic, single point]"}, {"smiles": "FC(F)(F)c1cccc(NC(=S)NC(c2ccccc2)c2ccccc2)c1", "Potency": "inconclusive: 29.1 µM [cytotoxic, single point]"}]}]}
